Data: patent US20090203661A1, “Betulinic acid, derivatives and analogs thereof and uses therefor” (priority 2006, published 2009)
At least one compound was matched to its structure with a doubt left.

Columns and labels:
[1] = tested on: Miapaca-2 pancreatic cancer cells; assay: Western blot of Sp proteins in Miapaca-2 cells; format: cell-based; details: Miapaca-2, 24 hr
Protocol: RKO colon cancer cells were treated with BA/CN-BA for 24 hr (FIG. 15A) or 48 hr (FIG. 15B) and Miapaca-2 pancreatic cancer cells were treated with BA/CN-BA for 24 hr (FIG. 15C). Whole cell lysates were examined by Western blot analysis.

[2] = tested on: SW480 cells; assay: Apoptosis (PARP cleavage, Western blot) in SW480 cells; format: cell-based, human; details: SW480, 24 hr
Protocol: Induction of KLF4 in HT-29 (FIG. 12A) and SW480 (FIG. 12B) cells. Cells were treated with different concentrations of CDODA isomers or T007 alone or in combination, and KLF4 mRNA levels were determined by real time PCR. […] KLF4 mRNA levels were not induced in SW480 cells by BA derivatives. FIGS. 12C-12D show induction of apoptosis. Panc28 (FIG. 12C) and SW480 (FIG. 12D) cells were treated for 24 hr with betulinic acid and related compounds and whole cell lysates were examined by Western blot analysis.
SW480, HT-29, HCT-15 and Panc-28 (3×10^5) colon cancer cells were seeded in 6-well tissue culture plates in DMEM/Ham's F-12 medium containing 2.5% charcoal-stripped FBS. Protein is extracted from the cells treated either with vehicle or indicated compounds suspended for 24 hr except for caveolin-1 protein which was done for 72 hr. Samples were extracted in high salt buffer [50 mmol/L HEPES, 500 mmol/L NaCl, 1.5 mmol/L MgCl2, 1 mmol/L EGTA, 10% glycerol, and 1% Triton X-100 (pH 7.5), and 5 μL/mL protease inhibitor cocktail (Sigma-Aldrich)]. Samples were incubated at 100° C. for 2 min, separated on either 10% or 12% SDS-PAGE gels and then transferred to polyvinylidene difluoride membrane (PVDF; Bio-Rad, Hercules, Calif.). […]

[3] = tested on: LNCaP cell xenografts; assay: LNCaP xenograft in athymic nude mice; format: in vivo
Protocol: Male athymic BALB/c nude mice (age 4-6 weeks) were purchased from Harlan (Indianapolis, Ind.). LNCaP cells (1×106) were implanted with matrigel (BD Biosciences, San Jose, Calif.) subcutaneously into the flank of each mouse. Ten days after cell inoculation, animals were divided into three groups of 10 mice each. The first group received 100 μL vehicle (1% DMSO in corn oil) by oral gavage and the second and third groups of animals received 10 and 20 mg/kg/d doses of BA in vehicle every second day for 14 days (7 doses). The mice were weighed, and tumor areas were measured throughout the study. After 22 days, the animals were sacrificed, final body and tumor weights were determined and selected tissues were further examined by routine hematoxylin and eosin staining and immunohistochemical analysis.
Tissue sections ([…] thick) mounted on poly-Lysine-coated slides were deparaffinized by standard methods. Endogenous peroxidase was blocked by the use of 3% hydrogen peroxide in PBS for 10 min. Antigen retrieval for VEGF and CD31 staining was done for 10 min in 10 mmol/L sodium citrate buffer (pH 6) heated at 95° C. in a steamer followed by cooling for 15 min. The slides were washed with PBS and incubated for 30 min at room temperature with a protein blocking solution (VECTASTAIN Elite ABC kit, Vector Laboratories, Burlingame, Calif.). Excess blocking solution was drained and the samples were incubated overnight at 4° C. with one of the following: a 1:100 dilution of VEGF antibody or a 1:40 dilution of CD31 antibody. Sections then were incubated with biotinylated secondary antibody followed by streptavidin (VECTASTAIN Elite ABC kit). The color was developed by exposing the peroxidase to diaminobenzidine reagent (Vector Laboratories), which forms a brown reaction product. The sections were then counterstained with Gill's hematoxylin. VEGF and CD31 expression was identified by the brown cytoplasmic staining. Hematoxylin and eosin staining was determined as previously described.

[4] = tested on: survivin promoter; assay: Survivin promoter luciferase transactivation in LNCaP cells; format: cell-based, Human
[5] = tested on: Panc-28 cells; assay: miR-27a expression in Panc-28 cells; format: cell-based, human
[6] = tested on: p21 promoter; assay: p21 promoter luciferase transactivation in Panc-28 cells; format: cell-based, human
Protocol: Cells were seeded onto the 12-well plates and 0.4 μg of GAL4-Luc, 0.04 μg of β-GAL, 0.04 μg of GAL4DBD-PPARγ, and 0.4 μg of p21-luc(FL) containing −2325 to +8 insert, 0.4 μg of p21-luc (−124) containing −124 to +8 insert and 0.4 μg of p21-LUC (−60) containing −60 to +8 insert were transfected using LipofectAMINE reagent (Invitrogen) following the manufacturer's protocol. Cells were treated either with vehicle or respective compounds suspended in complete medium after 6 hr of transfection. Cell lysate is extracted after 20-22 hr by adding 100 μl of 1× reporter lysis buffer per well and 30 μl of this extract is used to quantitate the luciferase activity using Lumicount (Perkin-Elmer Life and Analytical Sciences). Each experiment is done in triplicate and the results are normalized to the β-GAL activity.

Compound: C=C(C)[C@@H]1CC[C@]2(C(=O)O)CC[C@]3(C)[C@H](CC[C@@H]4[C@@]5(C)CC[C@H](O)C(C)(C)[C@@H]5CC[C@]43C)[C@@H]12 [betulinic acid, Betulinic acid]
- Sp protein expression [1]: decrease Sp protein expression
- caspase-dependent PARP cleavage [2]: induced caspase-dependent PARP cleavage
- tumor weights ([3]; 10 and 20 mg/kg/d): significantly decreased tumor weights
- tumor growth (tumor area) ([3]; 10 and 20 mg/kg/d, oral gavage, every second day): inhibited tumor growth
- VEGF and CD31 (microvessel density) staining in tumors ([3]; immunostaining): decreased
- tumor tissue vascularity (histopathology) ([3]; treated mice): remarkably less vascular
- PARP cleavage in tumors ([3]; tumor lysates, Western blot): PARP cleavage was observed
- expression of Sp1, Sp3, Sp4, AR and VEGF proteins in tumors ([3]; tumor lysates, Western blot): decreased
- luciferase activity, pSurvivin-269 and pSurvivin-150 constructs [4]: concentrationdependent decrease in luciferase activity
- effect of MG132 on decreased luciferase activity, pSurvivin constructs ([4]; cotreatment with 10 μM MG132): significantly reversed
- miR-27a expression [5]: decreases miR-27a
- transactivation, p21-luc(Fl) (−2325 to +8) ([6]; Panc-28): induce transactivation
- effect of T007 on induced p21-luc(Fl) luciferase activity ([6]; cotreatment with T007): unaffected
